Measured values reported in patent US20050014762A1, “Combination” (priority 2001, published 2005).
Values joined by “and” are separate entries in the source; they are usually repeats but may differ in a detail not shown here. Equal entries are not always repeated. Where two headings read alike, the source gives them in different places.

Test system: SRS-A-mediated bronchoconstriction after ovalbumin (OVA) challenge in guinea pigs
Assay: SRS-A-mediated (OVA-induced) bronchoconstriction in anaesthetized, mechanically ventilated sensitized guinea pigs
Type: in vivo, guinea pig
Settings: Cavia porcellus
Procedure: To assess the additive or synergistic inhibitory effect of the selective phosphodiesterase-4 inhibitor ROFLUMILAST combined with the leukotriene receptor antagonist MONTELUKAST both orally administered 1 h before ovalbumin (OVA) challenge on the early, mainly leukotriene-mediated (SRS-A=slow reacting substance of anaphylaxis) bronchoconstriction in anaesthetized, mechanically ventilated guinea pigs. Male Dunkin Hartley guinea pigs; body weight 200-250 g at sensitization and 350-500 g when performing the experiments. Ovalbumin (OVA) was used as allergen for active sensitization. Therefore, 20 μg OVA together with 20 mg Al(OH)3 suspended in 0.5 ml 0.9% NaCl-solution (=saline) were administered i.p. to each animal on 2 consecutive days. […] Controls received the drug-free methocel-solution 1 h before OVA-challenge as placebo (n=12). […] The time-effect curve for the delta-%-decrease of compliance and conductance was determined up to 12 min post challenge. Blood pressure and heart rate were monitored to control vitality. The area under the time-delta-%-decrease curves (AUC) was determined for each animal. On basis of the AUC-values, the inhibition of the SRS-A-induced decrease of compliance and conductance was calculated in reference to placebo. […] Measured and calculated ED50-values were compared by an unpaired t-test for statistical significant differences.

CC(C)(O)c1ccccc1CC[C@@H](SCC1(CC(=O)[O-])CC1)c1cccc(/C=C/c2ccc3ccc(Cl)cc3n2)c1.[Na+] [MONTELUKAST sodium salt, 2-[1-[1(R)-[3-[2(E)-(7-chloroquinolin-2-yl)vinyl]phenyl]-3-[2-(1-hydroxy-1-methylethyl)phenyl]propylsulfanylmethyl]cyclopropyl]acetic acid sodium salt]
ED50 (read-out: ED50, inhibition of decrease of airway compliance): 0.053 mg/kg and 0.086 µmol/kg
ED50 (read-out: ED50, inhibition of decrease of airway conductance): 0.055 mg/kg and 0.09 µmol/kg
